# Screening data

Source: PubChem BioAssay AID977624 (Broad Institute, 2014).

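GFP-tagged normal-ribosome E. coli mixed with an RFP-tagged h34 humanized strain, with green signal taken as growth after 24 hours. The value is the change in activity at the highest dose tested; more negative means stronger inhibition. Active requires GFP to fall at least twice as much as RFP with growth loss below a set limit; inconclusive means no clear call; everything else is inactive.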

These entries are mostly ones the record files as inconclusive; other results of the assay are not listed here.

For COc1ccc(NC(=O)C2CC3C=CC2C3)c([N+](=O)[O-])c1 (stereo not shown) [at 50 µM (top of the series)] the result was activity change 15.36 (inconclusive). With CC(=O)Oc1ccc(N(C(C)=O)S(=O)(=O)c2ccc(Cl)cc2)c2ccccc12 [at 50 µM (top of the series)] the assay gave activity change 1.646 (inactive). With O=C(CSc1nnc(COc2cccc3cccnc23)o1)c1ccc(F)cc1 [at 50 µM (top of the series)] the assay gave activity change 1.556 (inactive). CC(C)(C)S(=O)(=O)Cc1nc(-c2ccc(Cl)c(Cl)c2)cs1 [at 50 µM (top of the series)] gave activity change 15.12 (inactive). Cc1ccc(-n2cc(CNCCN3CCOC3=O)c(-c3ccc(F)cc3)n2)cc1 [at 50 µM (top of the series)] gave activity change 39.05 (inconclusive).

CCS(=O)(=O)N1CCN(c2ccnc3cc(Cl)ccc23)CC1 [at 50 µM (top of the series)] read activity change -21.77 (inconclusive). Result for Cn1c(CO)cnc1SCC(=O)c1ccc(Br)cc1 [at 50 µM (top of the series)] was activity change 11.78 (inactive). Result for CCOC(=O)c1cnc2ccc(OCC)cc2c1NCCCN1CCOCC1 [at 50 µM (top of the series)] was activity change 11.62 (inconclusive). For COc1ccc(CC(=O)NCc2csc(-c3cccs3)n2)cc1OC [at 50 µM (top of the series)] the result was activity change -7.338 (inactive). Fc1cccc(CCN2C(=S)NC[C@@H]2CC2CCCCC2)c1 [at 50 µM (top of the series)] read activity change -16.28 (inconclusive).

For COc1ccc(OCC(O)CNS(=O)(=O)c2cccc(Cl)c2)cc1 (stereo not shown) [at 50 µM (top of the series)] the result was activity change 1.67 (inconclusive). N#Cc1c(NC(=O)c2cccc(S(=O)(=O)Nc3ccc(C(=O)O)cc3)c2)sc2c1CCCC2 [at 50 µM (top of the series)] gave activity change -23.36 (inconclusive). For CCN(CC)CCn1c2ccccc2c2nc3ccc([N+](=O)[O-])cc3cc21 [at 50 µM (top of the series)] the result was activity change -63.01 (inconclusive). O=C(NCc1cccs1)c1ccc(Cl)c(S(=O)(=O)N2CCCC2)c1 [at 50 µM (top of the series)] gave activity change 11.84 (inconclusive). N#CC1CN(Cc2ccccc2)CN(Cc2ccccc2)C1 [at 50 µM (top of the series)] gave activity change 9.713 (inconclusive).

CC(C)OCCCNC(=O)c1ccc(CS(=O)(=O)c2cccc(C(F)(F)F)c2)o1 [at 50 µM (top of the series)] read activity change 38.81 (inconclusive). For Fc1ccc(CSc2nnc(-c3ccco3)o2)cc1 [at 50 µM (top of the series)] the result was activity change 46.99 (inconclusive). Result for COc1ccc(NC(=O)c2ccc(COc3ccccc3Br)o2)c(OC)c1 [at 50 µM (top of the series)] was activity change 20.24 (inconclusive). With CC(C)(C)C1CCC(C(=O)OCC(=O)N2CCN(C(=O)c3ccco3)CC2)CC1 (stereo not shown) [at 50 µM (top of the series)] the assay gave activity change 6.853 (inconclusive). Cc1ccc(CNS(=O)(=O)c2ccc3c(c2)NC(=O)CS3)cc1 [at 50 µM (top of the series)] read activity change 14.56 (inconclusive).

O=C(COc1ccc(Br)cc1)Nc1ccc(C(=O)Nc2ccccc2C(=O)O)cc1 [at 50 µM (top of the series)] read activity change -5.208 (inactive). With O=C(Cc1c(F)cccc1Cl)N(Cc1ccccc1)c1ccccn1 [at 50 µM (top of the series)] the assay gave activity change 14.44 (inconclusive). CC(=O)Nc1cccc(OCCCOc2cccc([N+](=O)[O-])c2)c1 [at 50 µM (top of the series)] gave activity change -4.686 (inactive). For Cc1onc(-c2ccccc2Cl)c1C(=O)N[C@@H](C)c1ccccc1 [at 50 µM (top of the series)] the result was activity change 21.2 (inconclusive). O=C(Nc1ccc(Cl)cc1)N1C[C@@H]2[C@H](c3ccccc31)[C@@H](CO)N2C(=O)c1ccccn1 [at 50 µM (top of the series)] read activity change -3.695 (inconclusive).

Cc1ccccc1Nc1c(-c2cccnc2)nc2ccc(Br)cn12 [at 50 µM (top of the series)] gave activity change 36.8 (inconclusive). COc1ccc(C2CN(C)CC2C(=O)c2ccc(C)cc2)cc1Cl (stereo not shown) [at 50 µM (top of the series)] gave activity change 19.44 (inactive). COc1ccc(CNc2ncnc3cc(OC)c(OC)cc23)cc1OC [at 50 µM (top of the series)] gave activity change 13.39 (inconclusive). For Cc1ccc(C(=O)c2ccccc2C(=O)OCC(=O)NC(C)(C)C)cc1 [at 50 µM (top of the series)] the result was activity change -17.2 (inconclusive). Result for O=C(NCCO)c1cc2c([nH]c3ccccc32)c(-c2ccccc2)n1 [at 50 µM (top of the series)] was activity change 16.15 (inconclusive).

O=[N+]([O-])c1ccc(N2CCOCC2)c2c1no[n+]2[O-] [at 50 µM (top of the series)] read activity change 45.54 (inconclusive). Result for CC1CN(CC(=O)Nc2nc3ccccc3s2)CC(C)O1 (stereo not shown) [at 50 µM (top of the series)] was activity change 14.24 (inconclusive). With O=C(CSc1ccncc1)Nc1ccc2ccccc2c1 [at 50 µM (top of the series)] the assay gave activity change -24.93 (inconclusive). CCc1c(N=O)c(-c2ccccc2)n(O)[n+]1[O-] [at 50 µM (top of the series)] read activity change 8.745 (inconclusive). Result for Cc1nc(N2CCC(C)CC2)c(C#N)c(C)c1[N+](=O)[O-] [at 50 µM (top of the series)] was activity change 1.063 (inactive).

Repeated from the top, 2 entries:

Compound,setting,activity change,filed as
COc1ccc(NC(=O)C2CC3C=CC2C3)c([N+](=O)[O-])c1 (stereo not shown),at 50 µM (top of the series),15.36,inconclusive
CC(=O)Oc1ccc(N(C(C)=O)S(=O)(=O)c2ccc(Cl)cc2)c2ccccc12,at 50 µM (top of the series),1.646,inactive